Measured data: PubChem BioAssay AID743456 (Peter MacCallum Cancer Centre, 2014)

Assay: 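Identify miRNAs tied to vorinostat resistance or sensitivity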 (primary screen)
System: human HCT116-VR colon cancer cells, a vorinostat-resistant HCT116 line
Reagent: miRNA mimic
Timing: about 3 days from transfection to readout; drug present for the last 24 h
Challenge: vorinostat at 2.5 µM final for 24 h
Measured: 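Per-well live-cell protease fluorescence and caspase luminescence under 2.5 µM vorinostat for 24 h, scored as robust z-scores and against mock transfection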
Direction: viability robust z-score: higher = more viable cells; caspase robust z-score: higher = more caspase activity, more apoptosis
Hit rule: 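a mimic counts as active if it lands in a lowered-viability class or a caspase-activation class; wells with too few cells without drug are left out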
The deposit covers 878 reagents; this is a part drawn at random. In the full data, 27 (3.1%) were called active. 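27 mimics are marked active, unlike an earlier stated count of 24; the viability threshold is described inconsistently.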 A number with no mark means an inactive call. Further read-outs or replicates are left out here. Not stated in the record: the amount of reagent.

| miRNA | viability robust z-score | caspase robust z-score | viability hit class | caspase hit class |
| --- | --- | --- | --- | --- |
| hsa-miR-15b* | -0.18 | -0.61 | no change | no change |
| hsa-miR-450b-5p | -0.01 | -0.02 | no change | no change |
| hsa-miR-105* | 0.01 | 1.29 | no change | no change |
| hsa-miR-532-5p | -1.49 | -0.37 | no change | no change |
| hsa-miR-548o | 1.05 | -0.42 | no change | no change |
| hsa-miR-516-3p | 0.52 | -0.45 | no change | no change |
| hsa-miR-130b* | -1.99 | 0.01 | no change | no change |
| hsa-miR-1244 | -0.24 | 0.05 | no change | no change |
| hsa-miR-635 | -0.08 | 1.16 | no change | no change |
| hsa-miR-92b | 0.46 | -0.37 | no change | no change |
| hsa-miR-744* | -2.07 | 3.47 | no change | no change |
| hsa-miR-21 | 1.3 | -0.1 | no change | no change |
| hsa-miR-16 | -2.86 | 1.5 | no change | no change |
| hsa-miR-1226 | -0.7 | 1.6 | no change | no change |
| hsa-miR-193a-5p | 1 | 0.86 | no change | no change |
| hsa-miR-1302 | -0.26 | -0.14 | no change | no change |
| hsa-miR-514 | 1.18 | -0.15 | no change | no change |
| hsa-miR-548l | 1.24 | -0.18 | no change | no change |
| hsa-miR-548m | 0.04 | 0.15 | no change | no change |
| hsa-miR-622 | -0.32 | 1.06 | no change | no change |
| hsa-miR-542-3p | -2.06 | 1.21 | no change | no change |
| hsa-miR-890 | -0.62 | -0.16 | no change | no change |
| hsa-miR-519b-3p | 0.2 | 1.76 | no change | no change |
| hsa-miR-653 | -0.26 | -0.09 | no change | no change |
| hsa-miR-485-5p | -0.6 | 3.63 | no change | no change |
| hsa-miR-1914 | 0.76 | -0.68 | no change | no change |
| hsa-let-7i* | 0.04 | 0.5 | no change | no change |
| hsa-miR-1324 | 0.64 | 4.29 | no change | no change |
| hsa-miR-544 | -1.18 | 0.94 | no change | no change |
| hsa-miR-483-3p | -0.01 | 0.06 | no change | no change |
| hsa-miR-324-5p | -1.44 | 3.04 | no change | no change |
| hsa-miR-7-2* | 0.62 | -0.43 | no change | no change |
| hsa-miR-196b | -0.43 | -0.2 | no change | no change |
| hsa-miR-500* | 0.08 | -0.76 | no change | no change |
| hsa-miR-181d | -0.96 | 1.32 | no change | no change |
| hsa-miR-1308 | 0.2 | -0.72 | no change | no change |
| hsa-miR-1539 | -0.87 | 5.1 | no change | no change |
| hsa-miR-1470 | 1.83 | -0.48 | no change | no change |
| hsa-miR-1225-5p | 0.66 | -0.28 | no change | no change |
| hsa-miR-548p | 0.93 | -0.53 | no change | no change |
| hsa-miR-577 | 2 | -0.2 | no change | no change |
| hsa-miR-346 | 0.02 | 0.72 | no change | no change |
| hsa-miR-1911 | 0.18 | -0.58 | no change | no change |
| hsa-miR-1262 | -2.31 | 0.9 | no change | no change |
| hsa-miR-601 | -0.4 | 2.32 | no change | no change |
| hsa-miR-412 | -0.26 | -0.25 | no change | no change |
| hsa-let-7f | 0.62 | -0.1 | no change | no change |
| hsa-miR-668 | 0.54 | -0.5 | no change | no change |
| hsa-miR-625* | -0.2 | -0.03 | no change | no change |
| hsa-miR-552 | -2.19 | -0.14 | no change | no change |

An excerpt of the results above:
| miRNA | viability robust z-score | caspase robust z-score | viability hit class | caspase hit class |
| --- | --- | --- | --- | --- |
| hsa-miR-21 | 1.3 | -0.1 | no change | no change |
| hsa-miR-16 | -2.86 | 1.5 | no change | no change |
